Values of other authors, collected in patent US8889659B2, “Pain relief compositions, manufacture and uses” (API Genesis, LLC, priority 2011, dated 2014).
At least one compound was matched to its structure with a doubt left.

Conditions: cited from earlier work

COc1cc(CNC(=O)CCCCC/C=C/C(C)C)ccc1O [Homo- capsaicin, Homocapsaicin]
Scoville Heat Units: 8.6 × 10^6 Scoville Heat Units
